Reference: the supplement of paper PMC11006884
The entries are a selection whose mix differs from that of the whole data set.

The chains behind the UniProt entries cited, without tags or fusion partners. Where a name states a change or a piece, a line headed by the entry shows the natural chain unless it says otherwise.
UniProt Q6KC79: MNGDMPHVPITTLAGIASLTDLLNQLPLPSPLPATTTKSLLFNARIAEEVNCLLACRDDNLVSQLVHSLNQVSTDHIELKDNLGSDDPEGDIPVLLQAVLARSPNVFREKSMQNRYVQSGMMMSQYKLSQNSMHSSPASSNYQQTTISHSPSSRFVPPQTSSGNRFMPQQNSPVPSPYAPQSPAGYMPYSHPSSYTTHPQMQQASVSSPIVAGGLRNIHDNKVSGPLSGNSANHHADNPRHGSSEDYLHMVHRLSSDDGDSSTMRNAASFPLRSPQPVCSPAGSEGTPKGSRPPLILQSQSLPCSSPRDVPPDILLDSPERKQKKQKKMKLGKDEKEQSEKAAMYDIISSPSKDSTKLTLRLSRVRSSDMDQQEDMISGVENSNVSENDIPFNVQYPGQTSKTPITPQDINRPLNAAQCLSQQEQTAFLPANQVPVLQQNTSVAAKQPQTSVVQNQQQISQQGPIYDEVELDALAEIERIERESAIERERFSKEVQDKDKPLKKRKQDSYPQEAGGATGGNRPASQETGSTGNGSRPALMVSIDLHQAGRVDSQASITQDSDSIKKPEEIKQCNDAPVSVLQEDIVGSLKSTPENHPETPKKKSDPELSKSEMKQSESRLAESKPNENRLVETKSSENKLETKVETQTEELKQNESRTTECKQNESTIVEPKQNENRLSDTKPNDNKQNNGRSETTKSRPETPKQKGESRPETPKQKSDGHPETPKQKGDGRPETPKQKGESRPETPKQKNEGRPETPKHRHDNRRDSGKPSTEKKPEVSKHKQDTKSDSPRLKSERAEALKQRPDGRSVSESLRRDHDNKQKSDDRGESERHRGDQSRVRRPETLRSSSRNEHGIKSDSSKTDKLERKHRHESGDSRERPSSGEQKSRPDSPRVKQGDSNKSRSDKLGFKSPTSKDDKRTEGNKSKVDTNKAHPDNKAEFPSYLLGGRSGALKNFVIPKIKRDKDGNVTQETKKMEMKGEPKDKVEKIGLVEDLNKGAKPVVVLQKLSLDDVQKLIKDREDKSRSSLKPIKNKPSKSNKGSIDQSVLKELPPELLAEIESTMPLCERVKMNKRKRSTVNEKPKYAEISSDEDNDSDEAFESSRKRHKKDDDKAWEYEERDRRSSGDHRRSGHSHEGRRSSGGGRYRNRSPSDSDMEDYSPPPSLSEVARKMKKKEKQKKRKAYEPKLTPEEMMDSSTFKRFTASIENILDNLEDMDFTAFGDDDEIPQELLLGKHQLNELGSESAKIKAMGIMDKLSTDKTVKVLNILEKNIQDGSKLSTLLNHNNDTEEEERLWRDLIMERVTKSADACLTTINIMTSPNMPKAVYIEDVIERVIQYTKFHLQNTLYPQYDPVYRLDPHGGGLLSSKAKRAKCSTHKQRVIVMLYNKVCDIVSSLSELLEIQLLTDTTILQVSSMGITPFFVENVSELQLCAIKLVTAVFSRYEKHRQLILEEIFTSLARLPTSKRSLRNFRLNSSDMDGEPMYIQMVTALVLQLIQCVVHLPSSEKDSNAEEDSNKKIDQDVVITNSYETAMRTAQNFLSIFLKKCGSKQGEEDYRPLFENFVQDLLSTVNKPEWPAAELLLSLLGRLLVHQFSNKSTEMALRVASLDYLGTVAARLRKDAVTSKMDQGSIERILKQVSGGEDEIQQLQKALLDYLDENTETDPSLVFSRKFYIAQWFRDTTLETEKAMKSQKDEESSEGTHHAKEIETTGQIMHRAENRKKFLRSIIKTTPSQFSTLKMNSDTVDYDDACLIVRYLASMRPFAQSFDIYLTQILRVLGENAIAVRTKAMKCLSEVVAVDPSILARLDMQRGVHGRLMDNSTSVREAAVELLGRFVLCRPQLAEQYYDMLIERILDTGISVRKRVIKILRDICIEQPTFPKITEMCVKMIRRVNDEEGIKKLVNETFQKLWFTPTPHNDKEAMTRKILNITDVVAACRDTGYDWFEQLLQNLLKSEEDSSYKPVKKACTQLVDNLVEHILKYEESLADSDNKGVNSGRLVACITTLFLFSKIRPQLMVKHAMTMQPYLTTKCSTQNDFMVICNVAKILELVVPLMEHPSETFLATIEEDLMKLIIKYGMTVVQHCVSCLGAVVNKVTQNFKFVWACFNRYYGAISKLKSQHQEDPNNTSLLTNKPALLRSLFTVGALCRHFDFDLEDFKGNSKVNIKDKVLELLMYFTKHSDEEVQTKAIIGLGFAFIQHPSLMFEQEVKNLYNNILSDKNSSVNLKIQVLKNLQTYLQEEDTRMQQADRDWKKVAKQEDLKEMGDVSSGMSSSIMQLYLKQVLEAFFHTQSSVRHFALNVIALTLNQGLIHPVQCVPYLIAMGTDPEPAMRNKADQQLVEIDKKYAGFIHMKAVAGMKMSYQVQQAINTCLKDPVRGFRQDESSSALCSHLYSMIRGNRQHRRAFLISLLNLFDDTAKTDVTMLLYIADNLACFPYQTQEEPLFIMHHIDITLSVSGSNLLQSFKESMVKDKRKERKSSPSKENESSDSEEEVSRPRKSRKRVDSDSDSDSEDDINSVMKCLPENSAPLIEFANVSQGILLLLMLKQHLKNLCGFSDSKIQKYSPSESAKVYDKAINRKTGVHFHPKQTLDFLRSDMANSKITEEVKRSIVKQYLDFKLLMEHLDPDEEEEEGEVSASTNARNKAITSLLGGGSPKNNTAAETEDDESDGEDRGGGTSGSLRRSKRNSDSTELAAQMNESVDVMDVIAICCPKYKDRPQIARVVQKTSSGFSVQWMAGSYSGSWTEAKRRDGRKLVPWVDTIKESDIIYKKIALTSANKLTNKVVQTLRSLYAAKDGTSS
UniProt Q66PJ3: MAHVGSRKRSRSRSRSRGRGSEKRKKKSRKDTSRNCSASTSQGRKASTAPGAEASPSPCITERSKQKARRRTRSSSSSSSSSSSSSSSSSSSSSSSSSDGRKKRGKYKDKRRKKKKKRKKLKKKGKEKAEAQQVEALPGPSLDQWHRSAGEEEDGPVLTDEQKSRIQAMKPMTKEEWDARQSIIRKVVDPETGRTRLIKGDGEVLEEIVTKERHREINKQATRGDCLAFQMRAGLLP
UniProt Q66K74: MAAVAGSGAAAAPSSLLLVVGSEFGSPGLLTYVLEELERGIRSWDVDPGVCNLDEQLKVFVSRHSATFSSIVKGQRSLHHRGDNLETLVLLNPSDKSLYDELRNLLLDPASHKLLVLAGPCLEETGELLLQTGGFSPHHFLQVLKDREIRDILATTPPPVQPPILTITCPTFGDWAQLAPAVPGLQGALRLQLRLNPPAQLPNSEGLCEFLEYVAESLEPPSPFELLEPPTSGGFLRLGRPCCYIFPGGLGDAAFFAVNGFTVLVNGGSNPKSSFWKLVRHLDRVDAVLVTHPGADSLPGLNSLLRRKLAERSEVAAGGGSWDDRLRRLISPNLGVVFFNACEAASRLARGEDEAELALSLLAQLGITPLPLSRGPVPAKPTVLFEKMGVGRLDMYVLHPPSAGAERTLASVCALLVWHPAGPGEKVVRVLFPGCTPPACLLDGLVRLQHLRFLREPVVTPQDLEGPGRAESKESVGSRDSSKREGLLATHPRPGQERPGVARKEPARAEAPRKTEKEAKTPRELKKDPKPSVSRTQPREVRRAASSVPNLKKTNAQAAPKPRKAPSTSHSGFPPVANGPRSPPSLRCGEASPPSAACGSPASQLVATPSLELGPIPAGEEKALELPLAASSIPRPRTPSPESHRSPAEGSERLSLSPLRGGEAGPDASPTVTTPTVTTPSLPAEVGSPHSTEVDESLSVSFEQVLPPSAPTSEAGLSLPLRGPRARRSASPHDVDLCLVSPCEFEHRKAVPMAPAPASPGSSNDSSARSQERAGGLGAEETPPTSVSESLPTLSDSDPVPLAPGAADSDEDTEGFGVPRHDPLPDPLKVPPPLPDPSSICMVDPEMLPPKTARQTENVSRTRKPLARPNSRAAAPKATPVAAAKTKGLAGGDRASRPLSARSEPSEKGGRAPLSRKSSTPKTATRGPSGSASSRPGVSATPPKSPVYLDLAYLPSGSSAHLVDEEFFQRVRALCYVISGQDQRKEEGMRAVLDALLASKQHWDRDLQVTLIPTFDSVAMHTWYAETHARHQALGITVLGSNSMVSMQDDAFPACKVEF
UniProt Q6P6C2: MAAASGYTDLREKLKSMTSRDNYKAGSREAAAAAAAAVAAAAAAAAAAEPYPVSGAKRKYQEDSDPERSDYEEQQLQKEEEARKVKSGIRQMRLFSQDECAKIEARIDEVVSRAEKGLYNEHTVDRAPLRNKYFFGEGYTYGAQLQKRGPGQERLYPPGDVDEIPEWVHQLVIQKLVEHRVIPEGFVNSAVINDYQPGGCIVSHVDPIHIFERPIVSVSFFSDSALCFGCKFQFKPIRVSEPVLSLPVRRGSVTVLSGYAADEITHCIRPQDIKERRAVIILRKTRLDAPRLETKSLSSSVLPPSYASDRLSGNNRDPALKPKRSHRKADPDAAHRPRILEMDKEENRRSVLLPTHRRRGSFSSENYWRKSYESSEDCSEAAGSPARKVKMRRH
UniProt Q5VZ89: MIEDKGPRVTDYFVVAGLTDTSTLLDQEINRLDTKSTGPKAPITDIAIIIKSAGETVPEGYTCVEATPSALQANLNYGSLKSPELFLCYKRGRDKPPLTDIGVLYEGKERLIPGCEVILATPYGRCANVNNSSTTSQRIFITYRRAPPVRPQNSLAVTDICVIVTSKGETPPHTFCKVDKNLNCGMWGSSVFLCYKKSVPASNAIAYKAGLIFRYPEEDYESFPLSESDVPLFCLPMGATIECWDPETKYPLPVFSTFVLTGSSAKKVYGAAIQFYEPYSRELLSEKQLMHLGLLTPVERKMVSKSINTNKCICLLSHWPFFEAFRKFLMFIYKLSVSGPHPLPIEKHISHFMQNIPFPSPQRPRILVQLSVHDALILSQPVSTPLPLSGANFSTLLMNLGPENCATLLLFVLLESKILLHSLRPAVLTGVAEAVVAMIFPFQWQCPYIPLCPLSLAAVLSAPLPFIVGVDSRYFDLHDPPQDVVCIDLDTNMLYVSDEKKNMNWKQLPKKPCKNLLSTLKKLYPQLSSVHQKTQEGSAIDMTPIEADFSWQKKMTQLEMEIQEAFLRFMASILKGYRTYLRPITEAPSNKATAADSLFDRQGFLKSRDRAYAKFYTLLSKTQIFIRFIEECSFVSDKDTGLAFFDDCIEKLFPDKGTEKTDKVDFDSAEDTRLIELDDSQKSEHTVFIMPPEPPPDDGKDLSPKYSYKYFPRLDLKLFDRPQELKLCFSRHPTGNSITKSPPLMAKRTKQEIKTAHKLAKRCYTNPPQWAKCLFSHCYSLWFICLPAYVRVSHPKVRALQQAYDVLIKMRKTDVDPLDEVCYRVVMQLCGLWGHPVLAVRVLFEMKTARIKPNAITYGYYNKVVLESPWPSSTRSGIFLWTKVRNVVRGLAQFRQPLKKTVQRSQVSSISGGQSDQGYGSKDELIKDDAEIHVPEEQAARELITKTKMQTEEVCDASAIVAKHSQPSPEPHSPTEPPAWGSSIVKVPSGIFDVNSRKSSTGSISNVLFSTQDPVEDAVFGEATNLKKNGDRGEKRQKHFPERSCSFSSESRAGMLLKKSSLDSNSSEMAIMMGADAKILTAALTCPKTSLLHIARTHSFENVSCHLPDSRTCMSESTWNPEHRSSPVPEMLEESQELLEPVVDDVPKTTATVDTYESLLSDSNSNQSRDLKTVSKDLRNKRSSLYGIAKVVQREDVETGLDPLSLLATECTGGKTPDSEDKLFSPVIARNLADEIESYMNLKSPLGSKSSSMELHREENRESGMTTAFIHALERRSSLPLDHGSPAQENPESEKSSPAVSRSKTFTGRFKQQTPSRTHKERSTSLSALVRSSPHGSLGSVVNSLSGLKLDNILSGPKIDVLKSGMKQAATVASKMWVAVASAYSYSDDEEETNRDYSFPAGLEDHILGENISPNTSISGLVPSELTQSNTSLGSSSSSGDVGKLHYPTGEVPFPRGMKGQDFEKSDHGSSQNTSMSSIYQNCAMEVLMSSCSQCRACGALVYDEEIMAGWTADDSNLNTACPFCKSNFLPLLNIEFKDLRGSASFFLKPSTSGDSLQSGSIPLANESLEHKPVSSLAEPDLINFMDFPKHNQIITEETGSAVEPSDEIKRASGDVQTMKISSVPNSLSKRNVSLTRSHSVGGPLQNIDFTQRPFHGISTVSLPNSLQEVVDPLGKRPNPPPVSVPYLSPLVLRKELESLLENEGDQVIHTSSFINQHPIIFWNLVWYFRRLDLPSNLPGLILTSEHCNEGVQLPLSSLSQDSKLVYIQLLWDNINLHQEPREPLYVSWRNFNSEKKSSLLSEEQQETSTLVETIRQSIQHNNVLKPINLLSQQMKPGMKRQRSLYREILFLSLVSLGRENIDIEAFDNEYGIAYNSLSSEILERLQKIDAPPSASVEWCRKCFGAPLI

Compound: COC(=O)C#Cc1ccccc1 [methyl 3-phenylpropiolate]
Assay: log2 ratio of iodoacetamide-alkyne labeling of the cysteine site, DMSO over compound (competition); higher = stronger covalent engagement of the cysteine by the compound, active = 1 or more
Details: 500 µM; treatment time 1 h; system: HEK293T cell lysate
Outline: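 HEK293T lysate at 2 mg/mL was treated with vehicle or electrophile (500 µM) for 1 h at ambient temperature, then labelled with iodoacetamide alkyne (1 h), clicked to sCIP-TMT reagents, pooled, digested with trypsin overnight at 37 °C, enriched on streptavidin and eluted with acid. Peptides were analysed by Orbitrap Eclipse LC-MS/MS with FAIMS and quantified in FragPipe, using duplicate channels and three replicates, with cysteines quantified in only one replicate excluded. The log2 competition ratio for each cysteine is the mean control-channel reporter intensity divided by the mean compound-channel reporter intensity.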

log2 ratio of iodoacetamide-alkyne labeling, inactive:
LIN9 C435 (UniProt Q5TKA1) 0.606
NIPBL C419 (UniProt Q6KC79) 0.842
PAXIP1 C169 (UniProt Q6ZW49) 0.19
UniProt Q6ZSZ5_C699 0.239
TMEM214 C392 (UniProt Q6NUQ4) 0.0314
UniProt Q69YQ0_C79 0.787
DUS1L C213 (UniProt Q6P1R4) 0.157
LARP1 C864 (UniProt Q6PKG0) 0.428
ARL6IP4 C220 (UniProt Q66PJ3) 0.629
UniProt Q5TEU4_C199 0.272
MAP1S C440 (UniProt Q66K74) -0.0398
TTC37 C600 (UniProt Q6PGP7) 0.211
UniProt Q5W0B1_C105 0.0516
EXOSC6 C117 (UniProt Q5RKV6) 0.37
DOCK11 C592 (UniProt Q5JSL3) -0.217
MTHFD1L C961 (UniProt Q6UB35) 0.83
UniProt Q5H9R7_C844 0.379
ZNF318 C242 (UniProt Q5VUA4) 0.289
LARP1 C1054 (UniProt Q6PKG0) 0.863
NIPBL C1795 (UniProt Q6KC79) -0.189
COQ5 C244 (UniProt Q5HYK3) 0.452
ALKBH5 C378 (UniProt Q6P6C2) 0.342
CEP170 C30 (UniProt Q5SW79) 0.0235
DARS2 C371 (UniProt Q6PI48) 0.442
NADSYN1 C428 (UniProt Q6IA69) 0.129
AARS2 C300 (UniProt Q5JTZ9) 0.178
SFXN4 C70 (UniProt Q6P4A7) 0.215
PGM2L1 C303 (UniProt Q6PCE3) 0.429
FAHD2B C301 (UniProt Q6P2I3) -0.114
DENND4C C1105 (UniProt Q5VZ89) 0.64
UniProt Q63HN8_C3609 0.17
THADA C283 (UniProt Q6YHU6) 0.143
DHRS13 C268 (UniProt Q6UX07) 0.106

Nothing new here: an excerpt of the list.
log2 ratio of iodoacetamide-alkyne labeling, inactive:
UniProt Q5W0B1_C105 0.0516
EXOSC6 C117 (UniProt Q5RKV6) 0.37
DOCK11 C592 (UniProt Q5JSL3) -0.217

Following part.

log2 ratio of iodoacetamide-alkyne labeling, active:
FIGNL1 C200 (UniProt Q6PIW4) 1.08
ANKRD40 C358 (UniProt Q6AI12) 1.2
CAMSAP1 C1379 (UniProt Q5T5Y3) 1.45
UniProt Q5H9L4_C158 1.09
